According to the supplement of paper PMC7661543:
The effect of the compound repeats well; differences between the knockouts mostly do not.

Test system: MDA-MB-231
Test: relative cell number vs DMSO control (72 h) (% of DMSO); higher = less growth inhibition (more cells)
Procedure: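 QMAP-Seq: a pool of 5 breast cancer cell lines (ZR-75-1, SKBR3, HCC-38, MDA-MB-231, BT-20), each carrying 12 doxycycline-inducible Cas9 sgRNA perturbations (11 knockouts plus non-targeting sgNT), was treated with compounds for 72 h at four 10-fold doses (10 nM-10 uM or 1 nM-1 uM range). Barcodes were amplified and sequenced, and cell number was interpolated from 293T spike-in standard curves. The result is expressed as % of the median of DMSO wells. Two biological replicates.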

CO[C@H]1C[C@@H]2CC[C@@H](C)[C@@](O)(O2)C(=O)C(=O)N2CCCC[C@H]2C(=O)O[C@H]([C@H](C)C[C@@H]2CC[C@@H](OCCO)[C@H](OC)C2)CC(=O)[C@H](C)/C=C(\C)[C@@H](O)[C@@H](OC)C(=O)[C@H](C)C[C@H](C)/C=C/C=C/C=C/1C [Everolimus]
Conditions | relative cell number
sgRNA knockout: sgATF3, 1 nM | 90.5
sgRNA knockout: sgATF3, 10 nM | 74.9
sgRNA knockout: sgATF3, 100 nM | 78.7
sgRNA knockout: sgATF3, 1000 nM | 94.4
sgRNA knockout: sgATF4, 1 nM | 87.6
sgRNA knockout: sgATF4, 10 nM | 54.3
sgRNA knockout: sgATF4, 100 nM | 80.1
sgRNA knockout: sgATF4, 1000 nM | 99
sgRNA knockout: sgATF6, 1 nM | 82.7
sgRNA knockout: sgATF6, 10 nM | 53.01
sgRNA knockout: sgATF6, 100 nM | 108
sgRNA knockout: sgATF6, 1000 nM | 91.2
sgRNA knockout: sgATG7, 1 nM | 65.2
sgRNA knockout: sgATG7, 10 nM | 62.5
sgRNA knockout: sgATG7, 100 nM | 72.9
sgRNA knockout: sgATG7, 1000 nM | 68.4
sgRNA knockout: sgERN1, 1 nM | 80
sgRNA knockout: sgERN1, 10 nM | 77.9
sgRNA knockout: sgERN1, 100 nM | 72.5
sgRNA knockout: sgERN1, 1000 nM | 62
sgRNA knockout: sgHSF1, 1 nM | 65.7
sgRNA knockout: sgHSF1, 10 nM | 74
sgRNA knockout: sgHSF1, 100 nM | 83.5
sgRNA knockout: sgHSF1, 1000 nM | 82.7
sgRNA knockout: sgHSF2, 1 nM | 78.6
sgRNA knockout: sgHSF2, 10 nM | 72.19
sgRNA knockout: sgHSF2, 100 nM | 92.8
sgRNA knockout: sgHSF2, 1000 nM | 80.89
sgRNA knockout: sgKEAP1, 1 nM | 73.5
sgRNA knockout: sgKEAP1, 10 nM | 64.6
sgRNA knockout: sgKEAP1, 100 nM | 80.1
sgRNA knockout: sgKEAP1, 1000 nM | 90.4
sgRNA knockout: sgNFE2L2, 1 nM | 77.2
sgRNA knockout: sgNFE2L2, 10 nM | 57.3
sgRNA knockout: sgNFE2L2, 100 nM | 83.9
sgRNA knockout: sgNFE2L2, 1000 nM | 83.1
sgRNA knockout: sgSLC35F2, 1 nM | 83.8
sgRNA knockout: sgSLC35F2, 10 nM | 84.6
sgRNA knockout: sgSLC35F2, 100 nM | 103
sgRNA knockout: sgSLC35F2, 1000 nM | 76.9
sgRNA knockout: sgXBP1, 1 nM | 73.86
sgRNA knockout: sgXBP1, 10 nM | 63.5
sgRNA knockout: sgXBP1, 100 nM | 87.9
sgRNA knockout: sgXBP1, 1000 nM | 75.4

CC1(C)CCC(c2ccc(Cl)cc2)=C(CN2CCN(c3ccc(C(=O)NS(=O)(=O)c4ccc(N[C@H](CCN5CCOCC5)CSc5ccccc5)c(S(=O)(=O)C(F)(F)F)c4)cc3)CC2)C1 [Navitoclax]
Conditions | relative cell number
sgRNA knockout: sgATF3, 10 nM | 105
sgRNA knockout: sgATF3, 100 nM | 108
sgRNA knockout: sgATF3, 1000 nM | 91.1
sgRNA knockout: sgATF3, 10000 nM | 42.7
sgRNA knockout: sgATF4, 10 nM | 85.1
sgRNA knockout: sgATF4, 100 nM | 124
sgRNA knockout: sgATF4, 1000 nM | 83
sgRNA knockout: sgATF4, 10000 nM | 39.9
sgRNA knockout: sgATF6, 10 nM | 109
sgRNA knockout: sgATF6, 100 nM | 122
sgRNA knockout: sgATF6, 1000 nM | 68.7
sgRNA knockout: sgATF6, 10000 nM | 40.5
sgRNA knockout: sgATG7, 10 nM | 105
sgRNA knockout: sgATG7, 100 nM | 97.7
sgRNA knockout: sgATG7, 1000 nM | 69.1
sgRNA knockout: sgATG7, 10000 nM | 37.4
sgRNA knockout: sgERN1, 10 nM | 92.3
sgRNA knockout: sgERN1, 100 nM | 105
sgRNA knockout: sgERN1, 1000 nM | 101
sgRNA knockout: sgERN1, 10000 nM | 32.7
sgRNA knockout: sgHSF1, 10 nM | 96
sgRNA knockout: sgHSF1, 100 nM | 98.3
sgRNA knockout: sgHSF1, 1000 nM | 97.2
sgRNA knockout: sgHSF1, 10000 nM | 57.8
sgRNA knockout: sgHSF2, 10 nM | 106
sgRNA knockout: sgHSF2, 100 nM | 121
sgRNA knockout: sgHSF2, 1000 nM | 70.4
sgRNA knockout: sgHSF2, 10000 nM | 51.4
sgRNA knockout: sgKEAP1, 10 nM | 102
sgRNA knockout: sgKEAP1, 100 nM | 121
sgRNA knockout: sgKEAP1, 1000 nM | 84.8
sgRNA knockout: sgKEAP1, 10000 nM | 54.3
sgRNA knockout: sgNFE2L2, 10 nM | 106
sgRNA knockout: sgNFE2L2, 100 nM | 79.334
sgRNA knockout: sgNFE2L2, 1000 nM | 93.8
sgRNA knockout: sgNFE2L2, 10000 nM | 39.5
sgRNA knockout: sgSLC35F2, 10 nM | 109
sgRNA knockout: sgSLC35F2, 100 nM | 120
sgRNA knockout: sgSLC35F2, 1000 nM | 72.9
sgRNA knockout: sgSLC35F2, 10000 nM | 64.4
sgRNA knockout: sgXBP1, 10 nM | 103
sgRNA knockout: sgXBP1, 100 nM | 96.5
sgRNA knockout: sgXBP1, 1000 nM | 75.5
sgRNA knockout: sgXBP1, 10000 nM | 40.8

C=C(c1ccc(C(=O)O)cc1)c1cc2c(cc1C)C(C)(C)CCC2(C)C [Bexarotene]
Conditions | relative cell number
sgRNA knockout: sgATF3, 10 nM | 112
sgRNA knockout: sgATF3, 100 nM | 81.4
sgRNA knockout: sgATF3, 1000 nM | 81.7
sgRNA knockout: sgATF3, 10000 nM | 117.4
sgRNA knockout: sgATF4, 10 nM | 102
sgRNA knockout: sgATF4, 100 nM | 97.6
sgRNA knockout: sgATF4, 1000 nM | 96.5
sgRNA knockout: sgATF4, 10000 nM | 76.1
sgRNA knockout: sgATF6, 10 nM | 92.7
sgRNA knockout: sgATF6, 100 nM | 95.8
sgRNA knockout: sgATF6, 1000 nM | 65.3
sgRNA knockout: sgATF6, 10000 nM | 79.2
sgRNA knockout: sgATG7, 10 nM | 88.2
sgRNA knockout: sgATG7, 100 nM | 96.1
sgRNA knockout: sgATG7, 1000 nM | 90.3
sgRNA knockout: sgATG7, 10000 nM | 96.2
sgRNA knockout: sgERN1, 10 nM | 102
sgRNA knockout: sgERN1, 100 nM | 84.3
sgRNA knockout: sgERN1, 1000 nM | 109
sgRNA knockout: sgERN1, 10000 nM | 103
sgRNA knockout: sgHSF1, 10 nM | 103
sgRNA knockout: sgHSF1, 100 nM | 101
sgRNA knockout: sgHSF1, 1000 nM | 97.57
sgRNA knockout: sgHSF1, 10000 nM | 86
sgRNA knockout: sgHSF2, 10 nM | 97.2
sgRNA knockout: sgHSF2, 100 nM | 80.4
sgRNA knockout: sgHSF2, 1000 nM | 102
sgRNA knockout: sgHSF2, 10000 nM | 75.7
sgRNA knockout: sgKEAP1, 10 nM | 99.8
sgRNA knockout: sgKEAP1, 100 nM | 91.4
sgRNA knockout: sgKEAP1, 1000 nM | 97.6
sgRNA knockout: sgKEAP1, 10000 nM | 86.7
sgRNA knockout: sgNFE2L2, 10 nM | 88.9
sgRNA knockout: sgNFE2L2, 100 nM | 111
sgRNA knockout: sgNFE2L2, 1000 nM | 89.4
sgRNA knockout: sgNFE2L2, 10000 nM | 110
sgRNA knockout: sgSLC35F2, 10 nM | 103
sgRNA knockout: sgSLC35F2, 100 nM | 89.3
sgRNA knockout: sgSLC35F2, 1000 nM | 102
sgRNA knockout: sgSLC35F2, 10000 nM | 107
sgRNA knockout: sgXBP1, 10 nM | 92
sgRNA knockout: sgXBP1, 100 nM | 77.8
sgRNA knockout: sgXBP1, 1000 nM | 98.2
sgRNA knockout: sgXBP1, 10000 nM | 78.5
